Results taken from PubChem BioAssay AID1688 (National Center for Advancing Translational Sciences (NCATS), 2009).
The campaign covered roughly 220,000 compounds. About 2,400 (1.1%) were called active. The inconclusive results got no clear call from the source; some entries with a clear call stand among them for comparison. Calls come from the whole dose curve; as a rule, active = well fitted inhibition curve with a large enough effect; inconclusive = small, poorly fitted or top-dose-only effect, or effect the other way; inactive = no such curve, though single readings can be large or run the other way. Potencies beside an inconclusive call are fits to weak or partial responses and may not hold up.

Assay: qHTS Multiplex Assay to Identify Dual Action Probes in a Cell Model of Huntington: Aggregate Formation (GFP); note: nearly all actives have a fitted effect of over 60% in size
Conditions: PC12 HttQ103-GFP aggregates, Acumen cytometry, 40 h; activity change, negative = inhibition: at 46.1 µM (top of the series) unless noted
Procedure, shortened: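 Aggregate formation scored by laser-scanning cytometer (488 excitation, 500–530 emission) in lysed PC12 cells expressing Q103-GFP after 100 nM tebufenozide induction; library tested in dose series, with ATPLite reagent added in the multiplex.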
% is set by controls: 0 for no effect and ±100 for the full control effect; potency is the fitted concentration of half-maximal effect.

Row | SMILES | Potency | activity change, negative = inhibition
1 | CCOC(=O)NC(c1ccc(C(C)C)cc1)C(Cl)(Cl)Cl (configuration not stated) | inconclusive: 11.2 µM [inhibitor, partial curve, poor fit] | 
2 | N#Cc1c(NCc2ccccc2)ccnc1NCc1cccnc1 | active: 22.4 µM | 
3 | NC(=O)c1ccsc1NC(=O)C1CCCCC1 | inconclusive: 5.62 µM [activator, single point] | 
4 | COc1ccccc1CCNCc1ccc(OC)c(OCc2ccccc2)c1 | inconclusive: 11.2 µM [inhibitor, partial curve] | 
5 | O=C(NCCc1ccccc1)c1cccs1 |  | inactive: 2.08% [at 9.22 µM]
6 | CCCn1nc(C(=O)NC2CCCc3ccccc32)c2ccccc2c1=O (configuration not stated) | inconclusive: 17.8 µM [inhibitor, single point] | 
7 | Cc1ccc(C2(O)CN(c3ccccc3)C3=[N+]2CCS3)cc1 (configuration not stated) | inconclusive: 22.4 µM [inhibitor, single point] | 
8 | O=C(Nc1cccc(S(=O)(=O)C(F)F)c1)c1ccc(S(=O)(=O)N2CCCCC2)cc1 | inconclusive: 12.6 µM [inhibitor, single point] | 
9 | CN1CCN(CCCNC(=O)c2ccc(/C=C3/Sc4ccccc4N(Cc4cccc(Cl)c4)C3=O)cc2)CC1 | inconclusive: 35.5 µM [inhibitor, single point] | 
10 | Cc1ccccc1OCCCCn1cnc2ccccc21 | active: 7.08 µM | 
11 | Cc1[nH][nH]c(=O)c1C=NCc1cccc(C(F)(F)F)c1 |  | inactive: -2.34%
12 | CCNC(=O)NC(=O)C(C)OC(=O)CCCSc1nc2ccccc2s1 (configuration not stated) | inconclusive: 5.62 µM [inhibitor, single point] | 
13 | CCOC1(C(F)(F)F)NC(=O)N(Cc2ccc(OC)cc2)C1=O (configuration not stated) | inconclusive: 10 µM [inhibitor, single point] | 
14 | CCNc1nc(NC(C)C)nc(N(C#N)CCOc2ccccc2)n1 | active: 22.4 µM | 
15 | CCN(CC)c1ccc(/C=N/Nc2nc(C)cc(C)n2)c(O)c1 | inconclusive: 1.58 µM [inhibitor, partial curve] | 
16 | O=C1N/C(=C/c2ccc(N3CCOCC3)o2)C(=O)N1c1cccc(Cl)c1 | inconclusive: 35.5 µM [inhibitor, single point] | 
17 | CCCn1c(-c2ccc(F)cc2)n[nH]c1=S |  | inactive: 15%
18 | CC1CCCCN1C(=S)NCc1ccccc1 (configuration not stated) | inconclusive: 3.55 µM [inhibitor, full curve, poor fit] | 
19 | COc1ccc(-n2[nH]c(C)cc2=O)cc1 | inconclusive: 35.5 µM [inhibitor, single point] | 
20 | CCC(C)NCCOc1ccccc1C (configuration not stated) | inconclusive: 2.51 µM [activator, single point] | 
21 | Cc1sc2nc(CN(Cc3cccs3)C(=O)NC3CCCCC3)[nH]c(=O)c2c1C | inconclusive: 12.6 µM [inhibitor, single point] | 
22 | O=C(CN1C(=O)C2(OCCCO2)c2ccccc21)NCCc1ccccc1 |  | inactive: 5.38%
23 | CCc1nnc(NC(=O)CSc2nc3c(c(=O)n2CC)SC(C)C3)s1 (configuration not stated) | inconclusive: 14.1 µM [inhibitor, partial curve] | 

Row | SMILES | Potency | activity change, negative = inhibition
24 | CC(C)(C)c1nc(NC(=O)Nc2ccccc2)sc1Br | active: 11.2 µM | 
25 | O=C(O)c1ccc(-c2ncc[nH]2)cc1 |  | inactive: 4.52%
26 | O=C(CN1CC(c2ccccc2)CC1=O)N/N=C/c1cc(Br)ccc1O (configuration not stated) | inconclusive: 2.51 µM [inhibitor, full curve] | 
27 | CCOc1cc(C(=S)N2CCOCC2)ccc1OS(=O)(=O)c1ccc(NC(C)=O)cc1 | inconclusive: 8.91 µM [inhibitor, partial curve] | 
28 | Fc1ccccc1-n1c(-c2ccc3ccccc3n2)n[nH]c1=S |  | inactive: 4.83%
29 | COc1ccc(N2CCN(C(=O)CN(c3cccc(Br)c3)S(C)(=O)=O)CC2)cc1 | inconclusive: 0.501 µM [inhibitor, full curve, poor fit] | 
30 | COc1ccccc1C1Nc2cccc3cccc(c23)N1 | inconclusive: 0.891 µM [activator, partial curve] | 
31 | CCCCCCn1nc(C(=O)Nc2nc3c(s2)CCCC3)c2ccccc2c1=O | inconclusive: 1.26 µM [inhibitor, single point] | 
32 | Cn1c2ccccc2c2c(C(=O)N3CCN(c4ccc(F)cc4)CC3)cn(C3CCCC3)c(=O)c21 | inconclusive: 15.8 µM [inhibitor, single point] | 
33 | COc1ccccc1NC(=O)Cc1nn(C)c(=O)c2ccccc12 | inconclusive: 5.62 µM [inhibitor, full curve] | 
34 | CC(C)c1nnc(NC(=O)CCS(=O)(=O)c2nc(-c3cccs3)cc(C(F)(F)F)n2)s1 | inconclusive: 4.47 µM [activator, partial curve] | 
35 | Cc1ccc(O)c(CP(=O)(c2ccccc2)c2ccccc2)c1 | inconclusive: 35.5 µM [activator, single point] | 
36 | CN1CCCN(C(=O)c2cc(-c3ccc(Cl)c(Cl)c3Cl)nc3ccccc23)CC1 | inconclusive: 35.5 µM [inhibitor, single point] | 
37 | Cn1c(=O)n(C)c2cc([N+](=O)[O-])c(N3CCN(S(=O)(=O)c4ccc(C(C)(C)C)cc4)CC3)cc21 | active: 12.6 µM | 
38 | COc1ccc(/C=N/N=C2\SCC(=O)N2c2c(C)n(C)n(-c3ccccc3)c2=O)cc1OC | inconclusive: 35.5 µM [activator, single point] | 
39 | Cc1cc(NCC2CCCO2)n2c(nc3ccccc32)c1C#N (configuration not stated) | inconclusive: 10 µM [inhibitor, partial curve, poor fit] | 
40 | O=C(c1ccco1)N1CCN(c2ncnc3c2[nH]c2ccc(Br)cc23)CC1 | inconclusive: 22.4 µM [inhibitor, single point] | 
41 | CCn1c(COc2ccc(Cl)cc2)nnc1SC1CCc2ccccc2C1=O (configuration not stated) | inconclusive: 17.8 µM [activator, single point] | 
42 | CCNC(=S)Nc1cc(OCC)c(NC(=O)c2ccco2)cc1OCC |  | inactive: 5.43%
43 | CN1CC(c2ccccc2Cl)C2(COc3ccccc3C2=O)C12C(=O)Nc1ccccc12 (configuration not stated) | inconclusive: 15.8 µM [inhibitor, single point] | 
44 | Nc1nc(-c2ccc(-n3nncc3-c3ccco3)cc2)cs1 |  | inactive: -17.1% [at 9.22 µM]
45 | CCCCCCn1c(N2CCN(c3ccccc3)CC2)nc2c1c(=O)[nH]c(=O)n2C | inconclusive: 35.5 µM [inhibitor, single point] | 
46 | COc1cc(NS(=O)(=O)c2ccc(NC(=O)COc3ccccc3Cl)cc2)nc(OC)n1 | inconclusive: 25.1 µM [activator, partial curve] | 

Row | SMILES | Potency | activity change, negative = inhibition
47 | O=c1[nH]c(Cc2ccccn2)nc2scc(-c3ccccc3Cl)c12 | inconclusive: 3.16 µM [inhibitor, full curve] | 
48 | NC(=O)c1sc2nc(-c3ccccc3)c3c(c2c1N)CCCC3 | active: 6.31 µM | 
49 | O=C1CCCC(O)=C1C=Nc1ccc(O)cc1 | inconclusive: 12.6 µM [activator, partial curve] | 
50 | CCOC(=O)N1CCN(Cc2nc(-c3ccc(Cl)cc3)no2)CC1 | inconclusive: 11.2 µM [inhibitor, partial curve] | 
51 | Nc1ncnc(N2CCc3ccccc32)c1[N+](=O)[O-] | active: 2.51 µM | 
52 | Cc1ccccc1CN1C[C@@H]2C[C@@H](c3cnc(N4CCOCC4)s3)N3CCC[C@@]23C1=O | active: 2.51 µM | 
53 | CC(C)CC(=O)NNC(=S)Nc1ccc(S(N)(=O)=O)cc1 |  | inactive: -13% [at 9.22 µM]
54 | Cc1ccc2ncccc2c1NS(=O)(=O)c1ccccc1 | inconclusive: 14.1 µM [inhibitor, single point] | 
55 | FC(F)(F)c1nc(N2CCCC2)ncc1-c1nnnn1-c1ccccc1 | inconclusive: 8.91 µM [inhibitor, partial curve, poor fit] | 
56 | Cc1ccccc1C(=O)/C(C#N)=N/Nc1c(C)n(C)n(-c2ccccc2)c1=O | inconclusive: 2.51 µM [inhibitor, full curve] | 
57 | CC(NC(=O)/C(C#N)=C/c1cn(-c2ccccc2)nc1-c1ccc(F)cc1)c1ccccc1 (configuration not stated) | inconclusive: 10 µM [inhibitor, partial curve] | 
58 | O=C(COc1ccc(-c2nnco2)cc1)N1CCN(S(=O)(=O)c2ccc3ccccc3c2)CC1 | inconclusive: 35.5 µM [inhibitor, single point] | 
59 | O=C(NCc1ccc2c(c1)OCO2)C1CCN(c2ccc(S(=O)(=O)N3CCCC3)cc2)CC1 | inconclusive: 0.891 µM [inhibitor, partial curve, poor fit] | 
60 | C=CCn1c(C(c2ccccc2)c2ccccc2)n[nH]c1=S |  | inactive: 0.449%
61 | Cc1ccc2[nH]c(C(=O)O)c(-c3ccccc3)c2c1 | inconclusive: 3.16 µM [activator, single point] | 
62 | S=C(NCc1ccc(Cl)cc1Cl)NC1CCCCC1 | inconclusive: 35.5 µM [inhibitor, single point] | 
63 | N#CC(c1ccc(Cl)cc1)c1nc2ccccc2nc1C(F)(F)F (configuration not stated) | inconclusive: 31.6 µM [inhibitor, single point] | 
64 | O=C(NCc1ccco1)c1ccc(Oc2ccccc2)cc1 |  | inactive: -13.5% [at 9.22 µM]
65 | COc1ccc(CCn2c(C(C)C)nc3c(c(=O)c4ccccc4n3C)c2=O)cc1 | inconclusive: 35.5 µM [activator, single point] | 
66 | CCn1c(CNc2cccc(Cl)c2)nnc1SCC(=O)OC1CCCCC1 | inconclusive: 0.1 µM [inhibitor, full curve, poor fit] | 
67 | O=C(CC1Nc2ccccc2NC1=O)Nc1cc(Cl)cc(Cl)c1 (configuration not stated) | inconclusive: 25.1 µM [inhibitor, partial curve] | 

Copied from the list.
In Potency, Cc1ccc2ncccc2c1NS(=O)(=O)c1ccccc1 has the entry inconclusive: 14.1 µM [inhibitor, single point]
In Potency, Cc1ccccc1C(=O)/C(C#N)=N/Nc1c(C)n(C)n(-c2ccccc2)c1=O has the entry inconclusive: 2.51 µM [inhibitor, full curve]
In activity change, negative = inhibition, CC(C)CC(=O)NNC(=S)Nc1ccc(S(N)(=O)=O)cc1 has the entry inactive: -13% [at 9.22 µM]
In Potency, Cc1ccc2[nH]c(C(=O)O)c(-c3ccccc3)c2c1 has the entry inconclusive: 3.16 µM [activator, single point]

As a short view, part of the list above.
Row | SMILES | Potency | activity change, negative = inhibition
64 | O=C(NCc1ccco1)c1ccc(Oc2ccccc2)cc1 |  | inactive: -13.5% [at 9.22 µM]
65 | COc1ccc(CCn2c(C(C)C)nc3c(c(=O)c4ccccc4n3C)c2=O)cc1 | inconclusive: 35.5 µM [activator, single point] | 
